# Source: the supplement of paper PMC8728848
# The list shows a part of the results.
# B1: GroEL (Clostridium difficile), Q18CT5 (protein)
# chain: MAKEIKFSEETRRALEAGVNKLADTVKVTLGPKGRNVILDKKFGSPLITNDGVTIAKEIELEDRFENMGAQLVKEVATKTNDVAGDGTTTATVLAQAIIREGLKNVTAGANPILLRKGIQKAVTVAVEELKNQSRIVETQEAISQVASISAGDEEVGKLIAEAMEIVGKDGVITVEESQTMNTELDAVEGMQFDRGFVSAYMVTDVDKMEAVLNDPYILITDKKISNIQELLPVLEQIVQQGKKLLIIAEDVEGEALSTLVVNKLRGTFDVVAVKAPGFGDRRKEMLQDIAILTGAQVISEELGYDLKEADLSMLGRASSVKVTKESTTIVDGSGDKKAIEDRVTQIKHQVEQTTSDFDREKLMERLAKLAGGVAVVKVGAATEVELKERKLRIEDALNATRAAVEEGIVAGGGTAFVSVIPAIGTLIESLEGEVKLGAQIVKKALEEPLRQIAINAGLEGAVIVQNVVNSEAETGFDALNEKYVNMIEAGIVDPTKVSRSALQNAASIASTFLTTEAAVADLPEKEDAGMPGMGGGMPGMM
# Columns and labels:
# Experiment in all cases: glycan array binding signal (z-score within array); higher = stronger binding
# Settings in all cases: glycan notation: IUPAC condensed, linker removed
# [1] = target: Fuc(a1-2)Gal(b1-4)GlcNAc(b1-3)Gal(b1-4)GlcNAc(b1-3)Gal(b1-4)GlcNAc
# Summary of the method: (§1)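 Glycan array binding is given as a within-array Z-score, which can be read as non-binding when negative. The arrays, 3228 of them, came from the Consortium for Functional Glycomics database and were retained only where the protein sequence was available. Z-scores were averaged across arrays of the same protein sequence at different concentrations or buffers and across linkers.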
# [2] = target: Fuc(a1-2)Gal(b1-4)GlcNAc(b1-3)GalNAc
# Summary of the method: as §1
# [3] = target: Fuc(a1-2)Gal(b1-4)GlcNAc(b1-3)[Fuc(a1-2)Gal(b1-4)GlcNAc(b1-6)]GalNAc
# Summary of the method: as §1
# [4] = target: Fuc(a1-2)Gal(b1-4)GlcNAc(b1-3)[Fuc(a1-3)[Gal(b1-4)]GlcNAc(b1-6)]Gal(b1-4)Glc
# Summary of the method: as §1
# [5] = target: Fuc(a1-2)Gal(b1-4)GlcNAc(b1-6)GalNAc
# Summary of the method: as §1
# [6] = target: Fuc(a1-2)Gal(b1-4)GlcNAc6S
# Summary of the method: as §1
# [7] = target: Fuc(a1-2)Gal(b1-4)[Fuc(a1-3)]GlcNAc
# Summary of the method: as §1
# [8] = target: Fuc(a1-2)Gal(b1-4)[Fuc(a1-3)]GlcNAc(b1-2)Man(a1-3)[Fuc(a1-2)Gal(b1-4)[Fuc(a1-3)]GlcNAc(b1-2)Man(a1-6)]Man(b1-4)GlcNAc(b1-4)[Fuc(a1-6)]GlcNAc
# Summary of the method: as §1
# [9] = target: Fuc(a1-2)Gal(b1-4)[Fuc(a1-3)]GlcNAc(b1-2)[Fuc(a1-2)Gal(b1-4)[Fuc(a1-3)]GlcNAc(b1-4)]Man(a1-3)[Fuc(a1-2)Gal(b1-4)[Fuc(a1-3)]GlcNAc(b1-2)Man(a1-6)]Man(b1-4)GlcNAc(b1-4)GlcNAc
# Summary of the method: as §1
# [10] = target: Fuc(a1-2)Gal(b1-4)[Fuc(a1-3)]GlcNAc(b1-3)Gal(b1-4)[Fuc(a1-3)]GlcNAc
# Summary of the method: as §1
# [11] = target: Fuc(a1-2)Gal(b1-4)[Fuc(a1-3)]GlcNAc(b1-3)Gal(b1-4)[Fuc(a1-3)]GlcNAc(b1-3)Gal(b1-4)[Fuc(a1-3)]GlcNAc
# Summary of the method: as §1
# [12] = target: Fuc(a1-2)Gal(b1-4)[Fuc(a1-3)]GlcNAc(b1-3)GalNAc
# Summary of the method: as §1
# [13] = target: Fuc(a1-2)Gal(b1-4)[Fuc(a1-3)]GlcNAc(b1-3)[Neu5Ac(a2-6)Gal(b1-4)GlcNAc(b1-6)]Gal(b1-4)Glc
# Summary of the method: as §1
# [14] = target: Fuc(a1-2)Gal3S(b1-4)GlcNAc
# Summary of the method: as §1
# [15] = target: Fuc(a1-2)Gal6S(b1-3)GlcNAc
# Summary of the method: as §1
# [16] = target: Fuc(a1-2)Gal6S(b1-3)GlcNAc6S
# Summary of the method: as §1
# [17] = target: Fuc(a1-2)Gal6S(b1-4)Glc
# Summary of the method: as §1
# [18] = target: Fuc(a1-2)Gal6S(b1-4)Glc6S
# Summary of the method: as §1
# [19] = target: Fuc(a1-2)[Gal(a1-3)]Gal
# Summary of the method: as §1
# [20] = target: Fuc(a1-2)[Gal(a1-3)]Gal(b1-3)GalNAc
# Summary of the method: as §1
# [21] = target: Fuc(a1-2)[Gal(a1-3)]Gal(b1-3)GalNAc(b1-3)Gal(a1-4)Gal(b1-4)Glc
# Summary of the method: as §1
# [22] = target: Fuc(a1-2)[Gal(a1-3)]Gal(b1-3)GlcNAc
# Summary of the method: as §1
# [23] = target: Fuc(a1-2)[Gal(a1-3)]Gal(b1-3)GlcNAc(b1-2)Man(a1-3)[Fuc(a1-2)[Gal(a1-3)]Gal(b1-3)GlcNAc(b1-2)Man(a1-6)]Man(b1-4)GlcNAc(b1-4)GlcNAc
# Summary of the method: as §1
# [24] = target: Fuc(a1-2)[Gal(a1-3)]Gal(b1-3)GlcNAc(b1-2)Man(a1-3)[Fuc(a1-2)[Gal(a1-3)]Gal(b1-3)GlcNAc(b1-2)Man(a1-6)]Man(b1-4)GlcNAc(b1-4)[Fuc(a1-6)]GlcNAc
# Summary of the method: as §1
# [25] = target: Fuc(a1-2)[Gal(a1-3)]Gal(b1-3)GlcNAc(b1-3)GalNAc
# Summary of the method: as §1
# [26] = target: Fuc(a1-2)[Gal(a1-3)]Gal(b1-3)GlcNAc(b1-6)GalNAc
# Summary of the method: as §1
# [27] = target: Fuc(a1-2)[Gal(a1-3)]Gal(b1-4)Glc
# Summary of the method: as §1
# [28] = target: Fuc(a1-2)[Gal(a1-3)]Gal(b1-4)GlcNAc
# Summary of the method: as §1
# [29] = target: Fuc(a1-2)[Gal(a1-3)]Gal(b1-4)GlcNAc(b1-2)Man
# Summary of the method: as §1
# [30] = target: Fuc(a1-2)[Gal(a1-3)]Gal(b1-4)GlcNAc(b1-2)Man(a1-3)[Fuc(a1-2)[Gal(a1-3)]Gal(b1-4)GlcNAc(b1-2)Man(a1-6)]Man(b1-4)GlcNAc(b1-4)GlcNAc
# Summary of the method: as §1
binder,measurement,setting,value
B1,glycan array binding signal (z-score),[1],0.143
same,glycan array binding signal (z-score),[2],-0.559
same,glycan array binding signal (z-score),[3],-1.3
same,glycan array binding signal (z-score),[4],-0.156
same,glycan array binding signal (z-score),[5],-1.24
same,glycan array binding signal (z-score),[6],0.468
same,glycan array binding signal (z-score),[7],-0.392
same,glycan array binding signal (z-score),[8],0.707
same,glycan array binding signal (z-score),[9],-0.388
same,glycan array binding signal (z-score),[10],-0.245
same,glycan array binding signal (z-score),[11],1.87
same,glycan array binding signal (z-score),[12],-1.12
same,glycan array binding signal (z-score),[13],1.13
same,glycan array binding signal (z-score),[14],0.86
same,glycan array binding signal (z-score),[15],1.25
same,glycan array binding signal (z-score),[16],-0.399
same,glycan array binding signal (z-score),[17],-1.09
same,glycan array binding signal (z-score),[18],0.216
same,glycan array binding signal (z-score),[19],-0.676
same,glycan array binding signal (z-score),[20],0.203
same,glycan array binding signal (z-score),[21],-0.648
same,glycan array binding signal (z-score),[22],-0.57
same,glycan array binding signal (z-score),[23],-1.07
same,glycan array binding signal (z-score),[24],0.402
same,glycan array binding signal (z-score),[25],-1.2
same,glycan array binding signal (z-score),[26],-1.16
same,glycan array binding signal (z-score),[27],-0.135
same,glycan array binding signal (z-score),[28],0.601
same,glycan array binding signal (z-score),[29],-0.294
same,glycan array binding signal (z-score),[30],0.755
